Measurements as given in US6995018.
These are yes or no findings as the source states them, for the method shown. Some entries that bind do so weakly or less than the wild type.

Protein sequences, listed by entry. Tags and fused reporters are not part of them. Lines headed by an entry give the natural chain unless they say otherwise; changes in a name come on top. Residues count along the entry.
UniProt P08603, residues 19-1231: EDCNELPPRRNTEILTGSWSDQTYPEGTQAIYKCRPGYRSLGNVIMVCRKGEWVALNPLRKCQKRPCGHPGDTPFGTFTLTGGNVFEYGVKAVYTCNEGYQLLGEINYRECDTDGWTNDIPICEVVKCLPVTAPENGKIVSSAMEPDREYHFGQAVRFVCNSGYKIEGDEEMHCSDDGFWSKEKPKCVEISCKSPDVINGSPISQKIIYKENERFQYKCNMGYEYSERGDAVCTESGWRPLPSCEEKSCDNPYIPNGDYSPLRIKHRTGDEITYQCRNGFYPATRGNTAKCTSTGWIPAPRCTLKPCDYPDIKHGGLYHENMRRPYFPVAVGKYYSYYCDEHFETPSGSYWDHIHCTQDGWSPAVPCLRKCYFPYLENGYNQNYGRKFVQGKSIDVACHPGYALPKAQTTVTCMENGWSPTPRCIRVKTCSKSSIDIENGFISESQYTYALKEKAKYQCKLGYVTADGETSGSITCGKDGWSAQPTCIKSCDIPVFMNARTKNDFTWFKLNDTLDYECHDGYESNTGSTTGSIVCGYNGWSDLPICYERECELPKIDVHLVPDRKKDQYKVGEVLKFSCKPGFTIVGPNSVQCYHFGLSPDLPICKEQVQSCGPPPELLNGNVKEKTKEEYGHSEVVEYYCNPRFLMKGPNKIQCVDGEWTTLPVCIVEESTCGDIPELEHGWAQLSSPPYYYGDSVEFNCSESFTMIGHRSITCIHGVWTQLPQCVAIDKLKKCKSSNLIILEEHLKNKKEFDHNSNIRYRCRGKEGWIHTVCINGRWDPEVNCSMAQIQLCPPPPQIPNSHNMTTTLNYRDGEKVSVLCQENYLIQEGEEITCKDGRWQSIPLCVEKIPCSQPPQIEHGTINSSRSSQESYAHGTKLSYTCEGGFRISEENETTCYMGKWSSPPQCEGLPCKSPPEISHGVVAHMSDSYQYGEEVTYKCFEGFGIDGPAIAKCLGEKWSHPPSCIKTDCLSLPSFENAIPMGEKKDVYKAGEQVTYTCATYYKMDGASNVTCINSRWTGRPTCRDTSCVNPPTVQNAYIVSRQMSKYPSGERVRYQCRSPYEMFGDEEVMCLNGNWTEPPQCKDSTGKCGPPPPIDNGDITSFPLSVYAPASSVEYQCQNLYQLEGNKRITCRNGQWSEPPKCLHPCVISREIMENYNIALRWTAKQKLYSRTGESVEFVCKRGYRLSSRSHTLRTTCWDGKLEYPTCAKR
UniProt P43406: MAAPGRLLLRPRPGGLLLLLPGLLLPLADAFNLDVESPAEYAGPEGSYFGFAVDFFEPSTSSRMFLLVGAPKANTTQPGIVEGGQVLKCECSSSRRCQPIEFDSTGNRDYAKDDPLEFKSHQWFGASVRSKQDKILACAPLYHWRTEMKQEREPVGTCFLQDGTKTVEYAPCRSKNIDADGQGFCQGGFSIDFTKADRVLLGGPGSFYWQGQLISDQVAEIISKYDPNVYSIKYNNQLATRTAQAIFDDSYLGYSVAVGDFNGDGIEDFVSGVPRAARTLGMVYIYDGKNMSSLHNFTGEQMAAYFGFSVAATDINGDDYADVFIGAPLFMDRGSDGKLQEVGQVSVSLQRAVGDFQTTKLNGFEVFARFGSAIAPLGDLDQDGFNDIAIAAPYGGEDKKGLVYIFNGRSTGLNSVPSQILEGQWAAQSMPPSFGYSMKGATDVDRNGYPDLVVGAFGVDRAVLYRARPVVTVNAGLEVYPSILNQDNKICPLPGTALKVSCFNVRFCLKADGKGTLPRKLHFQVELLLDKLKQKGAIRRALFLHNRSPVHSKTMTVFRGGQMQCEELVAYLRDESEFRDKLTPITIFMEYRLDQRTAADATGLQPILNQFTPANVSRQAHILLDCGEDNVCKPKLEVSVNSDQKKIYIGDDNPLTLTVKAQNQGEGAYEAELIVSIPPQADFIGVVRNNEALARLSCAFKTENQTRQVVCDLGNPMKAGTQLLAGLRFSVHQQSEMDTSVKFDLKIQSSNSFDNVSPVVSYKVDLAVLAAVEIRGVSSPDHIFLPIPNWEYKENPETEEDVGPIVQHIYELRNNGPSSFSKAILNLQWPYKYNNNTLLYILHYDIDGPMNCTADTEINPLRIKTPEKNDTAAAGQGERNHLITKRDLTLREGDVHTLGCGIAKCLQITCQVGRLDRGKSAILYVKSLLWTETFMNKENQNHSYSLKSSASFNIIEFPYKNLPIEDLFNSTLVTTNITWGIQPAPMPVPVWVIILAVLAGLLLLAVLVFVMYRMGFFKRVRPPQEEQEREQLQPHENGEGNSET
UniProt O54890: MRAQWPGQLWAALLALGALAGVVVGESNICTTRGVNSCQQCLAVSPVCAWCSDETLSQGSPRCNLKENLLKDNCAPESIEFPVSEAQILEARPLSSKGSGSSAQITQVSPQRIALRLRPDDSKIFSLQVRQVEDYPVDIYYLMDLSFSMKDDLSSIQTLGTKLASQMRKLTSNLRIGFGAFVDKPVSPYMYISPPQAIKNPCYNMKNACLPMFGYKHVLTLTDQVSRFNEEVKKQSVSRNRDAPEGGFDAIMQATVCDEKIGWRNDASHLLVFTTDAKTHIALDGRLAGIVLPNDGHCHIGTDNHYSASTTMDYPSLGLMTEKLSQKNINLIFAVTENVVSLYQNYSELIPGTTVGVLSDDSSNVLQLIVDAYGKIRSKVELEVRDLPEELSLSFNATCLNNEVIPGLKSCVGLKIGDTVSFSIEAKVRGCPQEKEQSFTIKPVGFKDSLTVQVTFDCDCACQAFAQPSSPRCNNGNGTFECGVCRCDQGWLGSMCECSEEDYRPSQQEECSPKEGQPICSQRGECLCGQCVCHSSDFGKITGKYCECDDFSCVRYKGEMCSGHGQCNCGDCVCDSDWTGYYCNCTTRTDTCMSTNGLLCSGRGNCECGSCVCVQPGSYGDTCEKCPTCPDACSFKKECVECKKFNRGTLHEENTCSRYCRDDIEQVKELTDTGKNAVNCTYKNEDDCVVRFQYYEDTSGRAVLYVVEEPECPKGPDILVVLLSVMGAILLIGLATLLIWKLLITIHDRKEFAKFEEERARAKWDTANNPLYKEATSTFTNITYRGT

What was measured:
[1] = target: human complement Factor H (human) (UniProt P08603); assay: steady state tryptophan fluorescence quenching, titration of Factor H
[2] = target: T1, CD44 on murine erythroleukemia (MEL) cells (murine (MEL cells)) (UniProt P15379); assay: inferred from MEL cell complement lysis assay with antiserum to CD44
T1 sequence (looked up): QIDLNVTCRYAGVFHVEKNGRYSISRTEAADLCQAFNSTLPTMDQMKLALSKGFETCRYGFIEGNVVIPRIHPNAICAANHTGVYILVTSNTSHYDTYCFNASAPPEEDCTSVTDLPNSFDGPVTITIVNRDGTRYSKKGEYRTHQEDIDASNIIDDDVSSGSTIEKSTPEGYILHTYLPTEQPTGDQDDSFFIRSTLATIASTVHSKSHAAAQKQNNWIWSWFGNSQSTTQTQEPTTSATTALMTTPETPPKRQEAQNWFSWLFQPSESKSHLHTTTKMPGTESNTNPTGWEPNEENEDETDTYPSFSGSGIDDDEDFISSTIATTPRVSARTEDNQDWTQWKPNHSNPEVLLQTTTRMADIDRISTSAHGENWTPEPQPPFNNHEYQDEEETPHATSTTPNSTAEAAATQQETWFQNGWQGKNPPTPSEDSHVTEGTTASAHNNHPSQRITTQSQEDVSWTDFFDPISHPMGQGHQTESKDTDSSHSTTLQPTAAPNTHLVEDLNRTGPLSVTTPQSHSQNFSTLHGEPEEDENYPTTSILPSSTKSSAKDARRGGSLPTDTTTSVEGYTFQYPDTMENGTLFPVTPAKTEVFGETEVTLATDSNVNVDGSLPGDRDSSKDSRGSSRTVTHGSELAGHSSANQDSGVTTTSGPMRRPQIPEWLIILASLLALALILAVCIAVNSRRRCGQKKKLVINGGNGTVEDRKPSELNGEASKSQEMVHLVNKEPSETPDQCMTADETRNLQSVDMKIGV

[3] = target: αVβ3 integrin on murine erythroleukemia (MEL) cells (murine (MEL cells)) (UniProt P43406+O54890); assay: inferred from MEL cell complement lysis assay with GRGDS peptide and αVβ3 antiserum
[4] = target: human complement Factor H (human) (UniProt P08603); assay: summary of the experiments of section II
[5] = target: human complement Factor H (human) (UniProt P08603); assay: steady state fluorescence, titration of purified human Factor H with rDMP1

Measured: binding

B1: recombinant dentin matrix protein 1 (rDMP1) (ligand)
chain: LPVTRYQNNESEDSEEWKGHLAQAPTPPLESSESSEGSKVSSEEQANEDPSDSTQSEEGLGSDDHQYIYRLAGGFSRSTGKGGDDKDDDEDDSGDDTFGDDDSGPGPKDRQEGGNSRLGSDEDSDDTIQASEESAPQGQDSAQDTTSESRELDNEDRVDSKPEGGDSTQESESEEHWVGGGSDGESSHGDGSELDDEGMQSDDPESIRSERGNSRMNSAGMKSKESGENSEQANTQDSGGSQLLEHPSRKIFRKSRISEEDDRSELDDNNTMEEVKSDSTENSNSRDTGLSQPRRDSKGDSQEDSKENLSQEESQNVDGPSSESSQEANLSSQENSSESQEEVVSESRGDNPDPTTSYVEDQEDSDSSEEDSSHTLSHSKSESREEQADSESSESLNFSEESPESPEDENSSSQEGLQSHSSSAESQSEESHSEEDDSDSQDSSRSKEDSNSTESKSSSEEDGQLKNIEIESRKLTVDAYHNKPIGDQDDNDCQDGY
binds: all assays above
